This series in a line: general procedure: Fmoc solid-phase peptide synthesis; Wang resin (PHB on polystyrene) preloaded with the C-terminal amino acid; HCTU. The note with it: conjugation step.

TW-ELTLGEFL-FAM came in with a conjugation yield of 10%. As for Azac-LFEEGLLT, the figure is 96%.

The record behind these values is paper PMC7940618 (Nature Communications, 2021).
